Laboratory results from PubChem BioAssay AID540256 (National Center for Advancing Translational Sciences (NCATS), 2011).
Among all 300,000 compounds or so, about 3,700 (1.2%) were called active. The shares of active, inactive and inconclusive entries below differ from those in the screen. Calls follow the shape of the full dose curve; tested in HEK293 cells. Potencies beside an inconclusive call are fits to weak or partial responses and may not hold up.
% is scaled to controls: 0 for no effect and ±100 for the full control effect; potency is read from the fitted curve at half-maximal effect.

Assay: qHTS for Inhibitors of binding or entry into cells for Lassa Virus; also: nearly all actives have a fitted effect of over 50% in size
Details: Lassa virus pseudotype entry inhibition, cell reporter; activity change, negative = inhibition: at 37.9 µM (top of the series) unless noted
With `NC(=O)c1sc2nc(-c3cccnc3)ccc2c1N` the “activity change, negative = inhibition” value was inactive: 18.3% [at 46.1 µM]. In the case of `CCC(=O)Oc1cccc(C(=O)Nc2ccc(-c3nnc(-c4ccco4)o3)cc2)c1`, the Potency is reported as inconclusive: 35.5 µM [inhibitor, single point]. For `CCOc1ccccc1C(=O)NCC(=O)Nc1ccc(-c2ccccc2)cc1`, the Potency was inconclusive: 1.26 µM [inhibitor, single point]. With `COc1ccc(C)cc1NC(=O)C(NS(=O)(=O)c1cccc2nsnc12)c1ccccc1` (configuration not stated) the Potency was inconclusive: 25.1 µM [inhibitor, partial curve, poor fit]. In the case of `Cc1ccc(C)c(N2CCN(C(=O)Cn3nc(Cc4cccnc4)c4ccccc4c3=O)CC2)c1`, the Potency is reported as inconclusive: 6.31 µM [inhibitor, single point]. For `O=S(=O)(c1ccc(Cl)cc1)c1cnc2ccccc2n1`, the Potency was inconclusive: 39.8 µM [inhibitor, partial curve, poor fit]. In the case of `COc1ccc(C(=O)OCN2C(=O)c3ccccc3C2=O)cc1`, the Potency is reported as inconclusive: 2.51 µM [inhibitor, full curve, poor fit]. For `COc1cccc(NC(=O)CN(c2cccc(C(F)(F)F)c2)S(C)(=O)=O)c1`, the Potency was inconclusive: 18.3 µM [inhibitor, single point]. In the case of `Cc1nc(N2N=C3/C(=C/c4ccc(F)cc4)CCCC3C2c2ccc(F)cc2)sc1C(=O)N(C)C` (configuration not stated), the Potency is reported as inconclusive: 3.98 µM [inhibitor, partial curve, poor fit]. With `O=C(CCc1ccc(S(=O)(=O)N2CCOCC2)cc1)OCc1nc2ccccc2s1` the “activity change, negative = inhibition” value was inactive: 5.57%. For `COc1cc(-c2noc(-c3cccc(Cl)c3)n2)cc(OC)c1OC`, the “activity change, negative = inhibition” value was inactive: 12.8%. With `O=C(NCCO)/C(=C\c1ccc([N+](=O)[O-])o1)NC(=O)c1ccccc1` the Potency was inconclusive: 35.5 µM [inhibitor, single point]. In the case of `Cc1ccccc1C(=O)N(C)c1ccccc1C(=O)NCc1ccccc1`, the “activity change, negative = inhibition” value is reported as inactive: 17.8%. For `Cc1ccc(C(=O)N2CC2C)cc1` (configuration not stated), the Potency was inconclusive: 1.26 µM [inhibitor, single point]. With `Cc1occc1C(=O)NNC(=S)Nc1ccccc1C(F)(F)F` the “activity change, negative = inhibition” value was inactive: 10.9%. For `CC(C)[C@@H]1NC(=O)c2cc([N+](=O)[O-])cc(F)c2NCCC[C@@H](C(N)=O)NC(=O)[C@H](CO)NC1=O`, the Potency was inconclusive: 0.058 µM [activator, full curve, poor fit]. In the case of `COc1ccc(NC(=O)CCN2CCCCC2)cc1`, the “activity change, negative = inhibition” value is reported as inactive: 6.29%. In the case of `CCCNC(=O)c1cc(OC)c(OC)cc1[N+](=O)[O-]`, the “activity change, negative = inhibition” value is reported as inactive: 3.56%. For `O=C(CSc1nnc(-c2ccccc2)o1)N1CCCc2ccccc21`, the “activity change, negative = inhibition” value was inactive: 23.3% [at 46.1 µM]. In the case of `COc1ccc(-n2c(SCC(=O)Nc3cc(C)on3)nc3ccccc3c2=O)cc1Cl`, the Potency is reported as inconclusive: 1 µM [inhibitor, single point]. In the case of `Cc1ccc(CNC(=O)CSc2c3c(nc4ccc(Cl)cc24)CCCC3)o1`, the Potency is reported as active: 7.3 µM. For `CCOc1ccccc1NC(=O)NNC(=O)c1ccc2ccccc2c1`, the Potency was inconclusive: 22.4 µM [inhibitor, single point]. For `O=C(COCC(=O)NCc1ccccc1)NCc1ccccc1`, the Potency was inconclusive: 5.01 µM [activator, full curve, poor fit]. In the case of `COc1ccc(CCNC(=O)c2cccc3c2C(=O)N(C2CCCCC2)C3)cc1OC`, the Potency is reported as inconclusive: 8.91 µM [inhibitor, partial curve, poor fit]. With `Cc1ccc(N(CCC(=O)O)S(=O)(=O)c2cccc(C(F)(F)F)c2)cc1` the Potency was inconclusive: 1 µM [inhibitor, single point]. With `COc1ccc(C2Nc3ccccc3-c3nnc(SC)nc3O2)cc1C` (configuration not stated) the “activity change, negative = inhibition” value was inactive: 18% [at 46.1 µM]. With `O=C(c1ccccc1F)N(NC(=O)C(O)(c1ccccc1)c1ccccc1)c1ccccc1` the Potency was inconclusive: 1.41 µM [inhibitor, partial curve, poor fit]. With `CCCCOCC1CN(CCCC)S(=O)(=O)c2c(F)cccc2O1` (configuration not stated) the Potency was inconclusive: 17.7 µM [activator, partial curve, poor fit]. In the case of `Cc1cc(-c2nnc3n2N=C(c2ccc(-c4ccccc4)cc2)CS3)n[nH]1`, the Potency is reported as inconclusive: 10 µM [inhibitor, partial curve, poor fit]. For `COc1ccc(C(=O)Cn2nnc(-c3ccccc3NC(=O)C3CC3)n2)cc1`, the “activity change, negative = inhibition” value was inactive: 2.42%. In the case of `CC1(C)Cc2c(sc(NC(=O)c3ccc(S(=O)(=O)N4CCCCCC4)cc3)c2C#N)C(C)(C)N1`, the Potency is reported as inconclusive: 22.4 µM [inhibitor, single point]. For `Cc1cc(C)c2c(C)c(C(=O)N3CCC(c4nc5ccccc5s4)CC3)oc2c1`, the “activity change, negative = inhibition” value was inactive: -6.16% [at 46.1 µM]. In the case of `O=C(Nc1ccccc1)OC1CC2CC1C1CCCC21` (configuration not stated), the Potency is reported as inconclusive: 28.2 µM [inhibitor, single point]. With `Cc1ccc(CN2C(=O)CCC2C(=O)NCc2ccc(F)cc2)cc1` (configuration not stated) the Potency was inconclusive: 5.62 µM [inhibitor, partial curve, poor fit]. In the case of `COc1ccc2nc(/C=N/NC(=O)[C@H](CCSC)NC(=O)OC(C)(C)C)ccc2c1`, the Potency is reported as inconclusive: 2.51 µM [inhibitor, partial curve, poor fit]. In the case of `CCn1cc(CN2CCC(C(=O)Nc3cccc(-c4cccc(Cl)c4)c3)CC2)cn1`, the Potency is reported as inconclusive: 35.5 µM [inhibitor, single point]. In the case of `O=C(CCC1COc2ccccc2O1)NCc1ccccc1` (configuration not stated), the Potency is reported as inconclusive: 6.51 µM [activator, single point]. With `CCCC1(C(=O)OCC)NC(c2ccc(N(C)C)cc2)C2C(=O)N(c3ccc(OCC)cc3)C(=O)C21` (configuration not stated) the “activity change, negative = inhibition” value was inactive: 0.363%. In the case of `CCOC(=O)c1cc(C#N)c(Oc2cccc(C(F)(F)F)c2)nc1-c1ccccc1`, the Potency is reported as inconclusive: 35.5 µM [inhibitor, single point]. In the case of `COC(=O)C(C(=O)OC)C(CC(=O)c1ccc(Br)cc1)c1ccccc1` (configuration not stated), the Potency is reported as inconclusive: 1.26 µM [inhibitor, single point]. For `CC(C)(C)c1ccc(NC(=O)CSc2nnc3scc(-c4ccccc4)n23)cc1`, the Potency was inconclusive: 35.5 µM [inhibitor, single point]. For `COc1ccc(Nc2nc(N)nc(C(F)(F)F)n2)c(OC)c1`, the “activity change, negative = inhibition” value was inactive: 10.5%. With `Cc1ccc(NC(=S)N=Nc2c(O)[nH]c3ccccc23)cc1` the Potency was inconclusive: 5.01 µM [inhibitor, partial curve]. In the case of `NC(=S)N/N=C\c1c(OCc2ccccc2Cl)ccc2ccccc12`, the Potency is reported as inconclusive: 4.47 µM [inhibitor, full curve, poor fit]. In the case of `CCN(CC)C(=O)Oc1ccc(OC(=O)N(CC)CC)cc1`, the Potency is reported as inconclusive: 2 µM [activator, partial curve, poor fit]. For `CC(C)(C)c1ccc(NC(=O)N2CCN(c3ccc([N+](=O)[O-])cn3)CC2)cc1`, the Potency was inconclusive: 22.4 µM [inhibitor, single point]. For `Cn1cnc(S(=O)(=O)N2CCC(C(=O)N3CCN(c4cccc(C(F)(F)F)c4)CC3)CC2)c1`, the “activity change, negative = inhibition” value was inactive: -2.97% [at 46.1 µM]. For `O=C(NCC1CC1(Cl)Cl)Nc1ccc(Cl)c(Cl)c1` (configuration not stated), the Potency was inconclusive: 35.5 µM [inhibitor, partial curve, poor fit]. For `N/C(Cc1ccccc1)=N\OC(=O)c1cccc2ccccc12`, the Potency was inconclusive: 35.5 µM [inhibitor, single point]. With `COc1cccc(NC(=O)CN(C)C(=O)c2ccc(NC(=O)CC3SC(N4CCCCC4)=NC3=O)cc2)c1` (configuration not stated) the “activity change, negative = inhibition” value was inactive: -2.15%. In the case of `CCOC(=O)c1c(C)[nH]c(C)c1S(=O)(=O)NCC(=O)N(C)c1ccc(C)c(C)c1`, the “activity change, negative = inhibition” value is reported as inactive: 4.79% [at 46.1 µM]. In the case of `O=C(NNC(=O)c1cccnc1)Nc1ccc([N+](=O)[O-])cc1`, the Potency is reported as inconclusive: 2.24 µM [inhibitor, partial curve, poor fit]. For `O=C(NCCOC(=O)c1ccc(C(=O)OCCNC(=O)c2cccnc2)s1)c1cccnc1`, the “activity change, negative = inhibition” value was inactive: 0.444%. In the case of `CN(C)S(=O)(=O)c1cccc(NC(=O)c2ccc(NS(=O)(=O)c3cccs3)cc2)c1`, the “activity change, negative = inhibition” value is reported as inactive: -1.11%. For `O=C(CN1CCC(C(=O)c2ccc(Cl)cc2)CC1)NC1CCCC1`, the Potency was inconclusive: 3.16 µM [inhibitor, partial curve, poor fit]. With `COc1ccccc1C(=O)Nc1ccc2c(c1)CC1(C(=O)N(C)C(=O)N(C)C1=O)C1CCCN21` (configuration not stated) the “activity change, negative = inhibition” value was inactive: 1.73%. With `CCC(=O)N1CCCc2cc(S(=O)(=O)Nc3ccc(C)c(C)c3)ccc21` the Potency was inconclusive: 7.08 µM [inhibitor, full curve, poor fit]. With `COC(=O)c1ccc(N=NN2CCOCC2)cc1` the “activity change, negative = inhibition” value was inactive: -18.5%. With `O=C(Nc1ccc2nc(SCC(=O)N3CCCc4ccccc43)sc2c1)c1ccc(F)cc1` the Potency was inconclusive: 11.2 µM [inhibitor, single point]. For `Cc1cc(Cl)ccc1OC(C)C(=O)N1CCCN(C(=O)C(C)Oc2ccc(Cl)cc2C)CC1` (configuration not stated), the Potency was inconclusive: 12.6 µM [inhibitor, partial curve, poor fit]. With `C/C(=N\NC(=O)c1ccc(Cl)cc1)c1ccc2[nH]ccc2c1` the “activity change, negative = inhibition” value was inactive: -26.7%. With `N#Cc1ccccc1NC(=O)C(=O)NCC(c1ccc2c(c1)OCO2)N1CCN(c2ccccc2)CC1` (configuration not stated) the Potency was inconclusive: 3.16 µM [inhibitor, single point]. In the case of `S=C(NCc1ccco1)N/N=C/c1ccc(Cl)cc1`, the Potency is reported as active: 4.61 µM. With `COc1ccccc1C(CNC(=O)c1ccc(-c2ccccc2Cl)o1)N1CCCC1` (configuration not stated) the Potency was inconclusive: 10 µM [inhibitor, partial curve, poor fit]. For `Cc1cccc(N(CC(=O)NCc2ccc3c(c2)OCO3)C(=O)CCC(=O)Nc2ccccn2)c1C`, the Potency was inconclusive: 35.5 µM [inhibitor, single point]. In the case of `Cc1nc2cccnc2n1-c1cccc(C(=O)NCCc2ccc(Cl)cc2)c1`, the “activity change, negative = inhibition” value is reported as inactive: -7.53% [at 46.1 µM]. In the case of `CC1=C(C(=O)Nc2ccccc2C)C(c2ccc(C)o2)n2c(s/c(=C/c3ccccc3)c2=O)=N1` (configuration not stated), the “activity change, negative = inhibition” value is reported as inactive: -1.44%.
